Results are given in words; binding and its absence hold for the method and conditions named. In cells and extracts the contact can be indirect. Some binding calls cover weakened binding; strength is not graded here.
T1: Derlin-2 (human (endogenous in HeLa and 293)) (UniProt Q9GZP9)
T1 sequence: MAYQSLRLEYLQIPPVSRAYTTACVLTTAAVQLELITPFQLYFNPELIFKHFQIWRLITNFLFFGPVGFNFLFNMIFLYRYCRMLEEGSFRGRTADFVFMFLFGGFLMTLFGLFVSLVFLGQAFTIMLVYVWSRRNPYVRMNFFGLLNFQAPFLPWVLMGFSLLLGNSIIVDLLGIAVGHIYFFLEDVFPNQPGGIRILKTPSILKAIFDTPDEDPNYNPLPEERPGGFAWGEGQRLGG

The chains behind the UniProt entries cited, without tags or fusion partners.
UniProt Q86TM6: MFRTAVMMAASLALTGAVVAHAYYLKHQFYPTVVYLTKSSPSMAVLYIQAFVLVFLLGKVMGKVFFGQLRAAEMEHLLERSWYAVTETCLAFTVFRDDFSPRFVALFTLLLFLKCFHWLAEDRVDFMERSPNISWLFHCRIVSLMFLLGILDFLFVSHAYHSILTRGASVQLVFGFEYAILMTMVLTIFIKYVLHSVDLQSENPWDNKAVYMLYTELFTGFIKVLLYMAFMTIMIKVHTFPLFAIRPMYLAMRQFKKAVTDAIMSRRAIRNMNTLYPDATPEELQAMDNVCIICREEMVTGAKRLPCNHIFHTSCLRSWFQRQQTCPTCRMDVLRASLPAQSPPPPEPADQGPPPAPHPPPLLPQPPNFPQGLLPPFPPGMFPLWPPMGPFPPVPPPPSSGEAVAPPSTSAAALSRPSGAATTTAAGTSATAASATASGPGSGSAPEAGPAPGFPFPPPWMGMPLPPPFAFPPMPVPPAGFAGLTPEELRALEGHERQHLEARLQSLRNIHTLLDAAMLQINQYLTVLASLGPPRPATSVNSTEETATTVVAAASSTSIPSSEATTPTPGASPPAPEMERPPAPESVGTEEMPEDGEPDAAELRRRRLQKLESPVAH


Columns and labels:
[1] = target: T1, Derlin-2 (human (endogenous in HeLa and 293)); assay: co-IP; Derl2 precipitated with rabbit anti-Derl2 antibody and protein-A sepharose from lysates (1% digitonin, 25 mM Tris-HCl, 150 mM NaCl, 5 mM EDTA, pH 7.0) of wildtype and Derl2-deleted cells, as in Fig. 2i (HeLa); western blot for Hrd1
[2] = target: E3 ubiquitin-protein ligase Hrd1 (human (endogenous in HeLa and 293)) (UniProt Q86TM6); assay: co-IP; Hrd1 precipitated with mouse anti-Hrd1/SYVN1 monoclonal antibody and protein-A sepharose from lysates (1% digitonin, 25 mM Tris-HCl, 150 mM NaCl, 5 mM EDTA, pH 7.0) of wildtype and ΔHrd1 cells (293); western blot for Derl2

binding [1] | binding [2] | Molecule
binds |  | E3 ubiquitin-protein ligase Hrd1 (from UniProt Q86TM6 1-617)
 | binds | Derlin-2 (protein, UniProt Q9GZP9 1-239) MAYQSLRLEYLQIPPVSRAYTTACVLTTAAVQLELITPFQLYFNPELIFKHFQIWRLITNFLFFGPVGFNFLFNMIFLYRYCRMLEEGSFRGRTADFVFMFLFGGFLMTLFGLFVSLVFLGQAFTIMLVYVWSRRNPYVRMNFFGLLNFQAPFLPWVLMGFSLLLGNSIIVDLLGIAVGHIYFFLEDVFPNQPGGIRILKTPSILKAIFDTPDEDPNYNPLPEERPGGFAWGEGQRLGG

From PMC4117610
